Results: patent publication US20140134179A1
These are yes or no findings as the source states them, for the method shown. Some results given as binding are weak or reduced against the parent protein; the word gives no strength.

By UniProt entry, the sequences of proteins in these tests, tags left out. Where a name states a change or a piece, a line headed by the entry shows the natural chain unless it says otherwise.
UniProt Q9H6X2: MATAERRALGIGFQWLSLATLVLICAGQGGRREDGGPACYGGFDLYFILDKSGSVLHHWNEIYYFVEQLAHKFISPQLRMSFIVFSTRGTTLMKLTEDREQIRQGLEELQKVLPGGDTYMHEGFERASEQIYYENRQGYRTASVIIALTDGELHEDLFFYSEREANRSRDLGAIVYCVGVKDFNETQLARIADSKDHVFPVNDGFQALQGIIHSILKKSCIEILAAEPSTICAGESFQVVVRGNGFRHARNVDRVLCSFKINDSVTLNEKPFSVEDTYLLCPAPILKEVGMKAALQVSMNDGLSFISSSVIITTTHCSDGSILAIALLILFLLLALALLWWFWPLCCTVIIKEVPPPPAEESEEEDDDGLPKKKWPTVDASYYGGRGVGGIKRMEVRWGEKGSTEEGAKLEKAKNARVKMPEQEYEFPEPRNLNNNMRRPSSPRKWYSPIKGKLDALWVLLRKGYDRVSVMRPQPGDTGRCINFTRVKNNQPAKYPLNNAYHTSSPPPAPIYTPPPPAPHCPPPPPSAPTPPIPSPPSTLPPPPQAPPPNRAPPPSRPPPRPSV

Legend:
[1] = target: flag-tagged human TEM8 on 293 cells (293/Flag-hTEM8) (human) (UniProt Q9H6X2); assay: same screens as for the Fabs (FIG. 2A-D)
[2] = target: human TEM8 on CHO cells (CHO-TEM8) (human) (UniProt Q9H6X2); assay: flow cytometry on CHO-TEM8 cells (FIG. 2B)
[3] = target: flag-tagged human TEM8 on 293 cells (293/Flag-hTEM8) (human) (UniProt Q9H6X2); assay: screens of Example 4 (flow cytometry on TEM8 transfectants)
[4] = target: flag-tagged human TEM8 on 293 cells (293/Flag-hTEM8) (human) (UniProt Q9H6X2); assay: flow cytometry on 293/Flag-hTEM8 cells, FITC anti-mouse secondary (FIG. 9B)

Measured: binding

B1: L5-mIgG2a (antibody, V domains shown)
VH: QVQLVESGGGLVQPGGSLRLSCAASGFTFNSYGLSWVRQAPGKGLEWVSNISSNGSYTYYADSVKGRFTISRDNSKNTLYLQMNSLRAEDTAVYYCARAGYGLFDVWGQGTLVTVSS
VL: DIELTQPPSVSVAPGQTARISCSGDKLREYYVHWYQQKPGQAPVLVIYGDNKRPSGIPERFSGSNSGNTATLTISGTQAEDEADYYCSSWAGSRSGTVFGGGTKLTVL
binds: [1] | [2] | [3] | [4]
